From the supplement of paper PMC4604168 (melanoma cell lines)
Some of the results follow. Repeats are few or missing, and single values can be far off.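 Cells were imaged in 1,536-well plates, and nuclei stained with an antibody against cleaved PARP were counted against all DNA-stained nuclei to give the apoptosis fraction. Screening doses were chosen to leave most cells alive, and resting and induced cleaved-PARP levels differ strongly between cell lines.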

Assays:
Test in all cases: cleaved PARP positive nuclei fraction relative to DMSO control; melanoma cells; higher = more apoptosis
Conditions in all cases: library dose: low library concentration; 72 h
A101D = test system: A101D
A2058 = test system: A2058
A375 = test system: A375
C32 = test system: C32
CBRC013 = test system: CBRC013 (line from a melanoma biopsy)
CBRC014 = test system: CBRC014 (line from a melanoma biopsy)
CBRC016 = test system: CBRC016 (line from a melanoma biopsy)
CBRC017 = test system: CBRC017 (line from a melanoma biopsy)
CBRC034 = test system: CBRC034 (line from a melanoma biopsy)
COLO792 = test system: COLO792
COLO800 = test system: COLO800
COLO829 = test system: COLO829
G361 = test system: G361
IPC-298 = test system: IPC-298
IST-MEL1 = test system: IST-MEL1
LOXIMVI = test system: LOXIMVI
501Mel = test system: 501Mel
LB2518-MEL = test system: LB2518-MEL

SMILES	cleaved PARP positive nuclei fraction (A101D) [%]	cleaved PARP positive nuclei fraction (A2058) [%]	cleaved PARP positive nuclei fraction (A375) [%]	cleaved PARP positive nuclei fraction (C32) [%]	cleaved PARP positive nuclei fraction (CBRC013) [%]	cleaved PARP positive nuclei fraction (CBRC014) [%]	cleaved PARP positive nuclei fraction (CBRC016) [%]	cleaved PARP positive nuclei fraction (CBRC017) [%]	cleaved PARP positive nuclei fraction (CBRC034) [%]	cleaved PARP positive nuclei fraction (COLO792) [%]	cleaved PARP positive nuclei fraction (COLO800) [%]	cleaved PARP positive nuclei fraction (COLO829) [%]	cleaved PARP positive nuclei fraction (G361) [%]	cleaved PARP positive nuclei fraction (IPC-298) [%]	cleaved PARP positive nuclei fraction (IST-MEL1) [%]	cleaved PARP positive nuclei fraction (LOXIMVI) [%]	cleaved PARP positive nuclei fraction (501Mel) [%]	cleaved PARP positive nuclei fraction (LB2518-MEL) [%]
COC(=O)c1sccc1S(=O)(=O)Nc1ccc(Nc2ccccc2)cc1OC + COc1ccc(-c2ccc3c(N4CCOCC4)nc(N4C[C@@H](C)O[C@@H](C)C4)nc3n2)cc1CO [KU0063794] (first compound 1 µM, partner dose 0.02 µM)	57.9	77	101	89.8	954	123	81.2	116	90.8	101	82.4	41.9	149	149	90.8	53.6		
O=C(O)C(=O)Nc1sc2c(c1C(=O)O)CCNC2 + O=C1NC(=O)/C(=C/c2ccc(-c3ccc(F)cc3O)o2)S1 [AS252424] (first compound 1.66667 µM, partner dose 1 µM)	52.5	62.3	133	182	238	139	42.1	145	79.7	118	14.6	85.7	185	41.9	176	45.6	145	44.3
O=C(Nc1ccccc1)c1cc([N+](=O)[O-])ccc1Cl + O=S(=O)(c1ccccc1)N(CC(F)(F)F)c1ccc(C(O)(C(F)(F)F)C(F)(F)F)cc1 [T0901317] (first compound 2 µM, partner dose 1.4 µM)	59.3	100	94.8	122	45.6	110	56.3	156	86	89.9	97.2	142	117	44.3	130	77.2		
O=C(Nc1ccccc1)c1cc([N+](=O)[O-])ccc1Cl + COc1ccc(-c2ccc3c(N4CCOCC4)nc(N4C[C@@H](C)O[C@@H](C)C4)nc3n2)cc1CO [KU0063794] (first compound 2 µM, partner dose 0.02 µM)	122	74.9	88.4	38.6	173	84.5	100	74.4	41.2	66.2	171	192	138	125	69.2	49.4		
COc1ccc2c(c1)CCC1C2CCC2(C)C(NCCCCCCN3C(=O)C=CC3=O)CCC12 (stereo not drawn) + COc1cc(N2CCC(N3CCN(C)CC3)CC2)ccc1Nc1ncc(Cl)c(Nc2ccccc2S(=O)(=O)C(C)C)n1 [NVP-TAE684] (first compound 0.4 µM, partner dose 0.08 µM)	117	82.4	155	113	149	112	160	85.8	121	123	160	66.7	183	75.8	102	229		
COc1cc2c(Oc3ccc4[nH]c(C)cc4c3F)ncnc2cc1OCCCN1CCCC1 [cediranib] + Oc1nc(-c2ccc(C(F)(F)F)cc2)nc2c1CSCC2 [XAV939] (first compound 0.4 µM, partner dose 2 µM)	49.6	61.9	173	76.8	133	63.1	74.4	75.5	84.5	295	109	122	57.1	76.7	56.1	33.1	148	78.7
N#Cc1c(O)c2c(-c3ccc(-c4ccccc4O)cc3)csc2[nH]c1=O + COc1ccc(COc2ccc(Cc3cnc(N)nc3N)cc2OC)cc1 [GW2580] (first compound 2 µM, partner dose 1 µM)	56.5	58.6	146	100	193	100	84.9	76.3	37.9	88.9	128	137	145	91.9	354	61.5	100	234
